According to publication PMC5294574, “Stoichiometry and structure of a lantibiotic maturation complex” (Scientific Reports, 2017):
No constants are given. Whether binding was seen depends on the method and setting.

Columns and labels:
[1] = biological target: NisC (lantibiotic cyclase) (Lactococcus lactis) (UniProt Q03202); test: SEC-MALS; isolated NisB or NisC, 200 μL of a 20 μM solution; 50 mM HEPES-NaOH, pH 7.5, 500 mM NaCl; both purified
[2] = biological target: NisC (lantibiotic cyclase) (Lactococcus lactis) (UniProt Q03202); test: SEC-SAXS; isolated NisB (200 μM) or NisC (470 μM), 200 μL on Superdex 200, 4 °C; 50 mM HEPES-NaOH, pH 7.5, 500 mM NaCl, 5% glycerol; molecular weight from POROD volume; both purified

binding [1]: no binding (tested: 20 μM)
binding [2]: no binding (tested: 470 μM)
B1: NisC (lantibiotic cyclase) (enzyme, UniProt Q03202 1-418)
chain: MRIMMNKKNIKRNVEKIIAQWDERTRKNKENFDFGELTLSTGLPGIILMLAELKNKDNSKIYQKKIDNYIEYIVSKLSTYGLLTGSLYSGAAGIALSILHLREDDEKYKNLLDSLNRYIEYFVREKIEGFNLENITPPDYDVIEGLSGILSYLLLINDEQYDDLKILIINFLSNLTKENNGLISLYIKSENQMSQSESEMYPLGCLNMGLAHGLAGVGCILAYAHIKGYSNEASLSALQKIIFIYEKFELERKKQFLWKDGLVADELKKEKVIREASFIRDAWCYGGPGISLLYLYGGLALDNDYFVDKAEKILESAMQRKLGIDSYMICHGYSGLIEICSLFKRLLNTKKFDSYMEEFNVNSEQILEEYGDESGTGFLEGISGCILVLSKFEYSINFTYWRQALLLFDDFLKGGKRK
